Measurements as given in publication PMC12815910.
Results are given in words; binding and its absence hold for the method and conditions named. Binding seen in cells or lysates may run through a third protein. Sequences can lack the tags named with a protein.

Molecular target: T1, Flag-MCARE (muscle-enriched Ca2+ regulator; transmembrane protein 233) (mouse) (UniProt D3Z1U7)
T1 sequence: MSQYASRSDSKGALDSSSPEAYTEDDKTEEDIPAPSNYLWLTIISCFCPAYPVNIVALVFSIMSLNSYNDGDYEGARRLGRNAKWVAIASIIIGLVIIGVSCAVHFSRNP
Assay: co-IP; HEK293 cells co-transfected; lysates (500 ug protein) in Co-IP buffer (20 mM NaPO4, 150 mM NaCl, 2 mM MgCl2, 0.1% NP-40, 10% glycerol, pH 7.4, 1 mM DTT) incubated with anti-DDDDK-tag mAb-magnetic agarose 60 min at 4 °C; eluted with 3× FLAG peptide; Western blot

## SERCA2 (mouse)
  binding: no binding
